# The supplement of paper PMC8728848
# The other results are listed elsewhere or left out.
# B1: Clec18Av1 (Homo sapiens), A5D8T8 (protein)
# chain: MLHPETSPGRGHLLAVLLALLGTAWAEVWPPQLQEQAPMAGALNRKESFLLLSLHNRLRSWVQPPAADMRRLDWSDSLAQLAQARAALCGTPTPSLASGLWRTLQVGWNMQLLPAGLVSFVEVVSLWFAEGQRYSHAAGECARNATCTHYTQLVWATSSQLGCGRHLCSAGQAAIEAFVCAYSPRGNWEVNGKTIVPYKKGAWCSLCTASVSGCFKAWDHAGGLCEVPRNPCRMSCQNHGRLNISTCHCHCPPGYTGRYCQVRCSLQCVHGRFREEECSCVCDIGYGGAQCATKVHFPFHTCDLRIDGDCFMVSSEADTYYRARMKCQRKGGVLAQIKSQKVQDILAFYLGRLETTNEVIDSDFETRNFWIGLTYKTAKDSFRWATGEHQAFTSFAFGQPDNHGFGNCVELQASAAFNWNDQRCKTRNRYICQFAQEHISRWGPGS
# What was measured:
# Assay in all cases: glycan array binding signal (z-score within array); higher = stronger binding
# Details in all cases: glycan notation: IUPAC condensed, linker removed
# [1] = target: Neu5Ac(a2-6)Gal(b1-4)GlcNAc(b1-6)GalNAc
# Method in brief: (§1)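 Arrays were curated from the Consortium for Functional Glycomics database, 3228 in total, and kept only where the protein sequence was available. Binding is expressed as a within-array Z-score. This score was averaged across arrays of the same protein sequence at different concentrations or buffers and across linkers, and negative values can be read as non-binding.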
# [2] = target: Neu5Ac(a2-6)Gal(b1-4)GlcNAc(b1-6)[Gal(b1-3)GlcNAc(b1-3)]Gal(b1-4)Glc
# Method in brief: as §1
# [3] = target: Neu5Ac(a2-6)Gal(b1-4)GlcNAc(b1-6)[Gal(b1-3)]GalNAc
# Method in brief: as §1
# [4] = target: Neu5Ac(a2-6)Gal(b1-4)GlcNAc6S
# Method in brief: as §1
# Neu5Ac(a2-6)GalNAc = target: Neu5Ac(a2-6)GalNAc
# Method in brief: as §1
# [5] = target: Neu5Ac(a2-6)GalNAc(b1-4)GlcNAc
# Method in brief: as §1
# [6] = target: Neu5Ac(a2-6)GalNAc(b1-4)GlcNAc6S
# Method in brief: as §1
# [7] = target: Neu5Ac(a2-6)GlcNAc(b1-4)GlcNAc
# Method in brief: as §1
# [8] = target: Neu5Ac(a2-6)GlcNAc(b1-4)GlcNAc(b1-4)GlcNAc
# Method in brief: as §1
# Neu5Ac(a2-8)Neu5Ac = target: Neu5Ac(a2-8)Neu5Ac
# Method in brief: as §1
# [9] = target: Neu5Ac(a2-8)Neu5Ac(a2-3)Gal(b1-3)GalNAc(b1-4)[Neu5Ac(a2-3)]Gal(b1-4)Glc
# Method in brief: as §1
# [10] = target: Neu5Ac(a2-8)Neu5Ac(a2-3)Gal(b1-3)GalNAc(b1-4)[Neu5Ac(a2-8)Neu5Ac(a2-3)]Gal(b1-4)Glc
# Method in brief: as §1
# [11] = target: Neu5Ac(a2-8)Neu5Ac(a2-3)Gal(b1-4)Glc
# Method in brief: as §1
# [12] = target: Neu5Ac(a2-8)Neu5Ac(a2-3)Gal(b1-4)GlcNAc
# Method in brief: as §1
# [13] = target: Neu5Ac(a2-8)Neu5Ac(a2-3)[Gal(b1-3)GalNAc(b1-4)]Gal(b1-4)Glc
# Method in brief: as §1
# [14] = target: Neu5Ac(a2-8)Neu5Ac(a2-3)[GalNAc(b1-4)]Gal(b1-4)Glc
# Method in brief: as §1
# [15] = target: Neu5Ac(a2-8)Neu5Ac(a2-8)Neu5Ac
# Method in brief: as §1
# [16] = target: Neu5Ac(a2-8)Neu5Ac(a2-8)Neu5Ac(a2-3)Gal(b1-4)Glc
# Method in brief: as §1
# [17] = target: Neu5Ac(a2-8)Neu5Ac(a2-8)Neu5Ac(a2-3)[Gal(b1-3)GalNAc(b1-4)]Gal(b1-4)Glc
# Method in brief: as §1
# [18] = target: Neu5Ac(a2-8)Neu5Ac(a2-8)Neu5Ac(a2-3)[GalNAc(b1-4)]Gal(b1-4)Glc
# Method in brief: as §1
# [19] = target: Neu5Ac(a2-8)Neu5Ac(a2-8)Neu5Ac(a2-8)Neu5Ac(a2-3)[GalNAc(b1-4)]Gal(b1-4)Glc
# Method in brief: as §1
# [20] = target: Neu5Ac(a2-8)Neu5Gc(a2-3)Gal(b1-4)GlcNAc
# Method in brief: as §1
# [21] = target: Neu5Ac(b2-6)Gal(b1-4)GlcNAc
# Method in brief: as §1
# Neu5Ac(b2-6)GalNAc = target: Neu5Ac(b2-6)GalNAc
# Method in brief: as §1
# [22] = target: Neu5Ac9Ac(a2-3)Gal(b1-3)GlcNAc
# Method in brief: as §1
# [23] = target: Neu5Ac9Ac(a2-3)Gal(b1-4)GlcNAc
# Method in brief: as §1
# [24] = target: Neu5Ac9Ac(a2-6)Gal(b1-4)GlcNAc
# Method in brief: as §1
# [25] = target: Neu5Gc(a2-3)Gal(b1-3)GlcNAc
# Method in brief: as §1
# [26] = target: Neu5Gc(a2-3)Gal(b1-3)[Fuc(a1-4)]GlcNAc
# Method in brief: as §1
# Neu5Gc(a2-3)Gal(b1-4)Glc = target: Neu5Gc(a2-3)Gal(b1-4)Glc
# Method in brief: as §1
# [27] = target: Neu5Gc(a2-3)Gal(b1-4)GlcNAc
# Method in brief: as §1
# [28] = target: Neu5Gc(a2-3)Gal(b1-4)GlcNAc(b1-3)Gal(b1-4)GlcNAc(b1-2)Man(a1-3)[Neu5Gc(a2-3)Gal(b1-4)GlcNAc(b1-3)Gal(b1-4)GlcNAc(b1-2)Man(a1-6)]Man(b1-4)GlcNAc(b1-4)GlcNAc
# Method in brief: as §1
# [29] = target: Neu5Gc(a2-3)Gal(b1-4)[Fuc(a1-3)]GlcNAc
# Method in brief: as §1
# [30] = target: Neu5Gc(a2-6)Gal(b1-4)GlcNAc
# Method in brief: as §1
# Neu5Gc(a2-6)GalNAc = target: Neu5Gc(a2-6)GalNAc
# Method in brief: as §1
# [31] = target: Neu5Gc(a2-8)Neu5Ac(a2-3)Gal(b1-4)GlcNAc
# Method in brief: as §1
# [32] = target: Neu5Gc(a2-8)Neu5Gc(a2-3)Gal(b1-4)GlcNAc
# Method in brief: as §1
# [33] = target: Neu5Gc(a2-8)Neu5Gc(a2-3)Gal(b1-4)GlcNAc(b1-3)Gal(b1-4)GlcNAc
# Method in brief: as §1
binder,measurement,setting,value
B1,glycan array binding signal (z-score),[1],-0.777
same,glycan array binding signal (z-score),[2],0.581
same,glycan array binding signal (z-score),[3],0.511
same,glycan array binding signal (z-score),[4],-0.665
same,glycan array binding signal (z-score),Neu5Ac(a2-6)GalNAc,0.333
same,glycan array binding signal (z-score),[5],-0.849
same,glycan array binding signal (z-score),[6],-0.221
same,glycan array binding signal (z-score),[7],-0.857
same,glycan array binding signal (z-score),[8],-0.734
same,glycan array binding signal (z-score),Neu5Ac(a2-8)Neu5Ac,-0.782
same,glycan array binding signal (z-score),[9],-0.337
same,glycan array binding signal (z-score),[10],1.85
same,glycan array binding signal (z-score),[11],-0.829
same,glycan array binding signal (z-score),[12],-0.874
same,glycan array binding signal (z-score),[13],1.9
same,glycan array binding signal (z-score),[14],0.368
same,glycan array binding signal (z-score),[15],-0.842
same,glycan array binding signal (z-score),[16],-0.855
same,glycan array binding signal (z-score),[17],-0.855
same,glycan array binding signal (z-score),[18],2.28
same,glycan array binding signal (z-score),[19],1.57
same,glycan array binding signal (z-score),[20],-0.877
same,glycan array binding signal (z-score),[21],1.02
same,glycan array binding signal (z-score),Neu5Ac(b2-6)GalNAc,-0.283
same,glycan array binding signal (z-score),[22],-0.864
same,glycan array binding signal (z-score),[23],-0.829
same,glycan array binding signal (z-score),[24],-0.823
same,glycan array binding signal (z-score),[25],-0.775
same,glycan array binding signal (z-score),[26],-0.646
same,glycan array binding signal (z-score),Neu5Gc(a2-3)Gal(b1-4)Glc,-0.738
same,glycan array binding signal (z-score),[27],-0.845
same,glycan array binding signal (z-score),[28],0.566
same,glycan array binding signal (z-score),[29],-0.565
same,glycan array binding signal (z-score),[30],-0.844
same,glycan array binding signal (z-score),Neu5Gc(a2-6)GalNAc,0.959
same,glycan array binding signal (z-score),[31],-0.821
same,glycan array binding signal (z-score),[32],-0.855
same,glycan array binding signal (z-score),[33],-0.754
